# According to the supplement of paper PMC10331698:
# ± gives the standard deviation of the averaged measurements. Most entries show no effect beyond the scatter of the controls.
# Legend:
# Assay in all cases: level (log10 ratio to DMSO vehicle control); higher = higher biomarker level / cell amount than vehicle control
# [1] = compound: O=C(O)C(F)(F)C(F)(F)C(F)(F)OC(F)(C(F)(F)F)C(F)(F)F [Perfluoro-4-isopropoxybutanoic acid] (in DMSO); settings: 2200 nM
# Experimental: (§1)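 BioMAP Diversity Plus panel of 12 human primary cell co-culture systems (3C, 4H, LPS, SAg, BT, BF4T, BE3C, CASM3C, HDF3CGF, KF3CT, MyoF, Mphg). Compounds were added 1 h before stimulation and left for 24 h (MyoF 48 h; BT 72 h for soluble read-outs or 6 d for IgG). Biomarkers were read by ELISA, cytotoxicity by SRB, PBMC viability and proliferation by Alamar Blue. Each well value was divided by the mean of 8 DMSO control wells on the same plate and log10 transformed; duplicate blinded samples were tested at 4 concentrations.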
# [2] = compound: OCC(F)(F)C(F)(F)C(F)(F)C(F)(F)C(F)(F)C(F)(F)CO [1H,1H,8H,8H-Perfluorooctane-1,8-diol] (in DMSO); settings: 2200 nM
# Experimental: as §1
# [3] = compound: OCCCC(F)(F)C(F)(F)C(F)(F)C(F)(F)C(F)(F)C(F)(F)C(F)(F)C(F)(F)F [3-(Perfluorooctyl)propanol] (in DMSO); settings: 2200 nM
# Experimental: as §1
# [4] = compound: OCC(F)(F)OC(F)(F)C(F)(F)OC(F)(F)CO [1H,1H,8H,8H-Perfluoro-3,6-dioxaoctane-1,8-diol] (in DMSO); settings: 2200 nM
# Experimental: as §1
# [5] = compound: FC(F)(F)C(F)(F)CNCC(F)(F)C(F)(F)F [Bis(1H,1H-perfluoropropyl)amine] (in DMSO); settings: 2200 nM
# Experimental: as §1
# [6] = compound: O=S(=O)(O)C(F)(F)C(F)(F)C(F)(F)C(F)(F)F [Perfluorobutanesulfonic acid] (in DMSO)
# Experimental: as §1
# [7] = compound: O=C(O)C(F)(OC(F)(F)C(F)(OC(F)(F)C(F)(OC(F)(F)C(F)(F)C(F)(F)F)C(F)(F)F)C(F)(F)F)C(F)(F)F [Perfluoro-(2,5,8-trimethyl-3,6,9-trioxadodecanoic)acid] (in DMSO); settings: 370 nM
# Experimental: as §1
# Hexafluoroglutaric acid = compound: O=C(O)C(F)(F)C(F)(F)C(F)(F)C(=O)O [Hexafluoroglutaric acid] (in DMSO)
# Experimental: as §1
# [8] = compound: OCC(F)(F)C(F)(F)C(F)(F)C(F)F [1H,1H,5H-Perfluoropentanol] (in DMSO); settings: 2200 nM
# Experimental: as §1
# [9] = compound: O=C(O)C(F)(OC(F)(F)C(F)(F)C(F)(F)F)C(F)(F)F [Ammonium perfluoro-2-methyl-3-oxahexanoate] (in Water)
# Experimental: as §1
# [10] = compound: CNS(=O)(=O)C(F)(F)C(F)(F)C(F)(F)C(F)(F)C(F)(F)C(F)(F)C(F)(F)C(F)(F)F [N-Methylperfluorooctanesulfonamide] (in DMSO); settings: 2200 nM
# Experimental: as §1
# [11] = compound: O=C(O)CCC(F)(F)C(F)(F)C(F)(F)F [3:3 Fluorotelomer carboxylic acid] (in DMSO); settings: 2200 nM
# Experimental: as §1
# [12] = compound: C=C(C)C(=O)OCCC(F)(F)C(F)(F)C(F)(F)C(F)(F)C(F)(F)C(F)(F)F [6:2 Fluorotelomer methacrylate] (in DMSO); settings: 2200 nM
# Experimental: as §1
# Perfluorohexanoic acid = compound: O=C(O)C(F)(F)C(F)(F)C(F)(F)C(F)(F)C(F)(F)F [Perfluorohexanoic acid] (in DMSO)
# Experimental: as §1
# [13] = compound: FC(F)(F)COC(OCC(F)(F)F)OCC(F)(F)F [tris(Trifluoroethoxy)methane] (in DMSO); settings: 2200 nM
# Experimental: as §1
# [14] = compound: OCC(F)(F)C(F)(F)C(F)(F)C(F)(F)C(F)(F)C(F)(F)F [6:1 Fluorotelomer alcohol] (in DMSO); settings: 2200 nM
# Experimental: as §1
# [15] = compound: FC(F)(F)C(F)(F)C(F)(F)C(F)(F)CCI [1H,1H,2H,2H-Perfluorohexyl iodide] (in DMSO); settings: 2200 nM
# Experimental: as §1
Test System,level (log10) [1],level (log10) [2],level (log10) [3],level (log10) [4],level (log10) [5],level (log10) ([6]; 2200 nM),level (log10) ([6]; 6700 nM),level (log10) ([6]; 20000 nM),level (log10) ([6]; 60000 nM),level (log10) [7],level (log10) (Hexafluoroglutaric acid; 2200 nM),level (log10) (Hexafluoroglutaric acid; 6700 nM),level (log10) (Hexafluoroglutaric acid; 20000 nM),level (log10) (Hexafluoroglutaric acid; 60000 nM),level (log10) [8],level (log10) ([9]; 2200 nM),level (log10) ([9]; 6700 nM),level (log10) ([9]; 20000 nM),level (log10) ([9]; 60000 nM),level (log10) [10],level (log10) [11],level (log10) [12],level (log10) (Perfluorohexanoic acid; 2200 nM),level (log10) (Perfluorohexanoic acid; 6700 nM),level (log10) (Perfluorohexanoic acid; 20000 nM),level (log10) (Perfluorohexanoic acid; 60000 nM),level (log10) [13],level (log10) [14],level (log10) [15]
lMphg:CD106/VCAM-1,-0.0075 ± 0.00071,-0.0115 ± 0.036,-0.0005 ± 0.0021,-0.0295 ± 0.025,-0.011 ± 0.0042,-0.0045 ± 0.019,-0.004 ± 0.025,-0.013 ± 0.018,-0.0195 ± 0.0078,-0.0065 ± 0.0078,0 ± 0.016,0.0045 ± 0.011,-0.005 ± 0.0057,-0.0255 ± 0.00071,-0.0065 ± 0.026,-0.0195 ± 0.019,-0.0195 ± 0.0035,-0.013 ± 0.0028,-0.0085 ± 0.0035,0.0045 ± 0.0078,-0.0035 ± 0.005,-0.0165 ± 0.032,-0.0075 ± 0.018,0.0065 ± 0.016,-0.0055 ± 0.011,0.0005 ± 0.018,0 ± 0.017,-0.014 ± 0.0014,-0.004 ± 0.041
4H:SRB,-0.0215 ± 0.0035,0.016 ± 0.014,0.006 ± 0.0085,-0.006 ± 0.033,0.0055 ± 0.011,0.004 ± 0.0085,0.0005 ± 0.0064,0.002 ± 0.0028,0 ± 0.0099,0.0105 ± 0.019,-0.0075 ± 0.013,-0.0005 ± 0.0092,0.003 ± 0.016,0.011 ± 0.034,0.0055 ± 0.011,-0.008 ± 0.016,-0.0075 ± 0.012,-0.018 ± 0.014,-0.0115 ± 0.005,0.004 ± 0.011,-0.013 ± 0.016,0.0005 ± 0.016,0.0005 ± 0.005,-0.002 ± 0.0057,-0.0105 ± 0.00071,0.0045 ± 0.015,-0.0025 ± 0.005,0.019 ± 0.031,-0.01 ± 0.0071
lMphg:CCL3/MIP-1alpha,-0.004 ± 0.0057,0.004 ± 0.057,0.0005 ± 0.03,0.031 ± 0.03,-0.029 ± 0.021,-0.0295 ± 0.0078,-0.0305 ± 0.016,-0.0395 ± 0.005,-0.0135 ± 0.0092,0.04 ± 0.02,0.029 ± 0.017,-0.0025 ± 0.0078,0.0125 ± 0.015,-0.024 ± 0.052,0.0045 ± 0.05,-0.0485 ± 0.016,-0.0685 ± 0.035,-0.067 ± 0.0014,-0.0185 ± 0.054,-0.007 ± 0.024,0.023 ± 0.058,0.0065 ± 0.063,-0.0195 ± 0.029,0.006,-0.009 ± 0.011,0.0025 ± 0.011,0.0095 ± 0.005,0.0085 ± 0.021,-0.0235 ± 0.021
MyoF:PAI-I,0.0035 ± 0.012,0.0135 ± 0.0064,-0.0065 ± 0.013,-0.0105 ± 0.021,-0.007 ± 0.0057,-0.008 ± 0.0085,-0.011 ± 0.013,0.0065 ± 0.0078,0.0005 ± 0.0064,0.006 ± 0.025,-0.0015 ± 0.0021,-0.0025 ± 0.021,-0.0035 ± 0.015,0.003,-0.006 ± 0.018,-0.017 ± 0.02,-0.0005 ± 0.005,-0.0025 ± 0.0064,-0.019 ± 0.011,0.011 ± 0.0028,-0.006 ± 0.0099,-0.01 ± 0.0042,-0.006 ± 0.0014,0.0025 ± 0.005,0.002 ± 0.0028,0.009,-0.0135 ± 0.015,0.001 ± 0.0071,0.0095 ± 0.0035
